# The campaign covered roughly 400,000 compounds. About 5,500 (1.4%) were called active. The inconclusive results got no clear call from the source; some entries with a clear call stand among them for comparison. The call rests on the fitted dose curve; in most records, active means well fitted cell-killing curve with a large enough effect; inconclusive means small, poorly fitted or top-dose-only effect, or effect the other way; inactive means flat fitted curve, though single readings scatter. A potency beside an inconclusive call is a rough fit, not a confirmed value.
# Experiment: qHTS assay for MDR1-selective chemotherapeutics: Primary screen using the parental adenocarcinoma cell KB-3-1; further: nearly all actives have a fitted effect of over 60% in size
# Settings: KB-3-1 viability, CellTiter-Glo ATP luminescence, 72 h; activity change, negative = cytotoxic: at 46.1 µM (top of the series)
# Method in brief: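 Cytotoxicity in the drug-sensitive parental line KB-3-1 was scored as loss of CellTiter-Glo luminescence following 72 h incubation with compound. Values come from curve fitting of normalized concentration-response data.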
# On the % scale 0 is the no-effect control and ±100 the full control effect; potency means the concentration at half of the fitted maximal effect.
Compound,"activity change, negative = cytotoxic",Potency
CCc1nc2cccnc2n1-c1ccc(CC(=O)O)cc1,inactive: 22.6%,
COc1cc([N+](=O)[O-])cc2cc(C(=O)N3CCCC3)c(=O)oc12,,"inconclusive: 2.31 µM [cytotoxic, partial curve, poor fit]"
COc1ccc(Cl)cc1-n1c(C)cc(C(=O)OCC(=O)N2CC(=O)Nc3ccccc32)c1C,,"inconclusive: 23.1 µM [cytotoxic, single point]"
CCOC(=O)c1c(C)[nH]c(C)c1C(=O)COC(=O)c1ccc(Cl)c(S(=O)(=O)NCc2ccccc2)c1,,"inconclusive: 25.9 µM [cytotoxic, single point]"
CC(C)(C)c1ccc(OCc2ccc(C(=O)N/N=C/c3ccc(O)c(O)c3)cc2)cc1,,"inconclusive: 29.1 µM [cytotoxic, single point]"
CN(C)c1ccc(CNC(=O)C2(C)Cc3c(-c4ccccc4)ccnc3O2)cc1 (configuration not stated),,"inconclusive: 29.1 µM [cytotoxic, single point]"
CCOC(=O)CC1(CC)Oc2ccccc2N1S(=O)(=O)c1ccc(C)cc1 (configuration not stated),,"inconclusive: 16.4 µM [cytotoxic, partial curve, poor fit]"
COc1ccc(CC(N)c2csc(NC(=O)Nc3ccc(OC)cc3)n2)cc1 (configuration not stated),,"inconclusive: 29.1 µM [cytotoxic, partial curve, poor fit]"
COc1ccc(CNC(=O)C(c2ccc(C)o2)N(Cc2cccs2)C(=O)Cc2cccs2)cc1 (configuration not stated),,"inconclusive: 29.1 µM [cytotoxic, single point]"
Cc1cc(C)nc(NS(=O)(=O)c2ccc(NC(=O)c3cccs3)cc2)n1,inactive: 2.6%,
CCOc1ccc(CNC(=O)c2ccc(Sc3ccc(Cl)cc3)c(NC(C)=O)c2)cc1,,"inconclusive: 23.1 µM [cytotoxic, single point]"
CCOc1ccc(NC(=O)/C=C/c2ccccc2)c([N+](=O)[O-])c1,,"inconclusive: 29.1 µM [cytotoxic, single point]"
COc1ccc(N(C(=O)c2ccco2)C(C(=O)NC2CCCC2)c2ccncc2)cc1 (configuration not stated),,"inconclusive: 16.4 µM [rising, partial curve, poor fit]"
Cc1cc(N2CCOCC2)c(F)cc1C(=O)c1ccccc1,inactive: -18.9%,
CC1(C)Cc2c(sc3c2C2=NCCN2C=N3)CS1,inactive: 0%,
Cc1ccc(N(CC(=O)NC(C)(C)C)C(=O)CNC(=O)c2cccs2)c(C)c1,,"inconclusive: 29.1 µM [rising, single point]"
COc1ccc(C(=O)/C=C/C(=O)N(Cc2ccc(F)cc2)C(C(=O)NC2CCCCC2)c2ccncc2)c(O)c1 (configuration not stated),,"inconclusive: 18.4 µM [cytotoxic, single point]"

# No new results follow: 2 of the compounds above.
Compound,"activity change, negative = cytotoxic",Potency
Cc1ccc(N(CC(=O)NC(C)(C)C)C(=O)CNC(=O)c2cccs2)c(C)c1,,"inconclusive: 29.1 µM [rising, single point]"
COc1ccc(C(=O)/C=C/C(=O)N(Cc2ccc(F)cc2)C(C(=O)NC2CCCCC2)c2ccncc2)c(O)c1 (configuration not stated),,"inconclusive: 18.4 µM [cytotoxic, single point]"

# — PubChem BioAssay AID1347075 (National Center for Advancing Translational Sciences (NCATS), 2019)
